From patent US20080275023A1, “N-Hydroxyamides Omege-Substituted with Tricyclic Groups as Histone Deacetylase Inhibitors, Their Preparation and Use in Pharmaceutical Formulations” (priority 2005, published 2008)

Test system: histone deacetylase (HDAC), HeLa nuclear extract
Test: Deacetylase activity on nuclear extract of HeLa cells (Fluor de Lys kit)
Format: biochemical, human
Conditions: 0.1 μM compound, percent inhibition relative to control without inhibitor
Experimental: The activity of the compounds as histone deacetylase (HDAC) inhibitors was measured using an in vitro acetylation assay. The compounds were then evaluated as inhibitors of proliferation of human tumor cell cultures.
Deacetylase Activity on Nuclear Extract of Hela Cells (Human Cervical Cancer Cell)
The assay (Fluor de Lys™ kit, BioMol) is divided into two steps: in the first step the substrate which comprises an acetylated lysine residue is reacted with the nuclear extract (HeLa) containing the enzymatic activity in the presence and absence of inhibitors. In the second step a fluorogenic reagent is added which highlights the deacetylated residues. A reduction in fluorescence is obtained where there has been inhibition of the deacetylase activity. The result is finally expressed as percent inhibition relative to the control without inhibitor at a concentration of 1 μM.

O=C(CCCCCCC(=O)Nc1ccccc1)NO [suberanilohydroxamic acid (SAHA), suberanilohydroxamic acid, reference compound]
% inhib at 0.1 μM: 55%
